Three molecules from paper PMC8322138, “BRCA2 binding through a cryptic repeated motif to HSF2BP oligomers does not impact meiotic recombination” (Nature Communications, 2021) can be followed below.

Amino acid sequences for entries named in this document (tags omitted).
UniProt P97929: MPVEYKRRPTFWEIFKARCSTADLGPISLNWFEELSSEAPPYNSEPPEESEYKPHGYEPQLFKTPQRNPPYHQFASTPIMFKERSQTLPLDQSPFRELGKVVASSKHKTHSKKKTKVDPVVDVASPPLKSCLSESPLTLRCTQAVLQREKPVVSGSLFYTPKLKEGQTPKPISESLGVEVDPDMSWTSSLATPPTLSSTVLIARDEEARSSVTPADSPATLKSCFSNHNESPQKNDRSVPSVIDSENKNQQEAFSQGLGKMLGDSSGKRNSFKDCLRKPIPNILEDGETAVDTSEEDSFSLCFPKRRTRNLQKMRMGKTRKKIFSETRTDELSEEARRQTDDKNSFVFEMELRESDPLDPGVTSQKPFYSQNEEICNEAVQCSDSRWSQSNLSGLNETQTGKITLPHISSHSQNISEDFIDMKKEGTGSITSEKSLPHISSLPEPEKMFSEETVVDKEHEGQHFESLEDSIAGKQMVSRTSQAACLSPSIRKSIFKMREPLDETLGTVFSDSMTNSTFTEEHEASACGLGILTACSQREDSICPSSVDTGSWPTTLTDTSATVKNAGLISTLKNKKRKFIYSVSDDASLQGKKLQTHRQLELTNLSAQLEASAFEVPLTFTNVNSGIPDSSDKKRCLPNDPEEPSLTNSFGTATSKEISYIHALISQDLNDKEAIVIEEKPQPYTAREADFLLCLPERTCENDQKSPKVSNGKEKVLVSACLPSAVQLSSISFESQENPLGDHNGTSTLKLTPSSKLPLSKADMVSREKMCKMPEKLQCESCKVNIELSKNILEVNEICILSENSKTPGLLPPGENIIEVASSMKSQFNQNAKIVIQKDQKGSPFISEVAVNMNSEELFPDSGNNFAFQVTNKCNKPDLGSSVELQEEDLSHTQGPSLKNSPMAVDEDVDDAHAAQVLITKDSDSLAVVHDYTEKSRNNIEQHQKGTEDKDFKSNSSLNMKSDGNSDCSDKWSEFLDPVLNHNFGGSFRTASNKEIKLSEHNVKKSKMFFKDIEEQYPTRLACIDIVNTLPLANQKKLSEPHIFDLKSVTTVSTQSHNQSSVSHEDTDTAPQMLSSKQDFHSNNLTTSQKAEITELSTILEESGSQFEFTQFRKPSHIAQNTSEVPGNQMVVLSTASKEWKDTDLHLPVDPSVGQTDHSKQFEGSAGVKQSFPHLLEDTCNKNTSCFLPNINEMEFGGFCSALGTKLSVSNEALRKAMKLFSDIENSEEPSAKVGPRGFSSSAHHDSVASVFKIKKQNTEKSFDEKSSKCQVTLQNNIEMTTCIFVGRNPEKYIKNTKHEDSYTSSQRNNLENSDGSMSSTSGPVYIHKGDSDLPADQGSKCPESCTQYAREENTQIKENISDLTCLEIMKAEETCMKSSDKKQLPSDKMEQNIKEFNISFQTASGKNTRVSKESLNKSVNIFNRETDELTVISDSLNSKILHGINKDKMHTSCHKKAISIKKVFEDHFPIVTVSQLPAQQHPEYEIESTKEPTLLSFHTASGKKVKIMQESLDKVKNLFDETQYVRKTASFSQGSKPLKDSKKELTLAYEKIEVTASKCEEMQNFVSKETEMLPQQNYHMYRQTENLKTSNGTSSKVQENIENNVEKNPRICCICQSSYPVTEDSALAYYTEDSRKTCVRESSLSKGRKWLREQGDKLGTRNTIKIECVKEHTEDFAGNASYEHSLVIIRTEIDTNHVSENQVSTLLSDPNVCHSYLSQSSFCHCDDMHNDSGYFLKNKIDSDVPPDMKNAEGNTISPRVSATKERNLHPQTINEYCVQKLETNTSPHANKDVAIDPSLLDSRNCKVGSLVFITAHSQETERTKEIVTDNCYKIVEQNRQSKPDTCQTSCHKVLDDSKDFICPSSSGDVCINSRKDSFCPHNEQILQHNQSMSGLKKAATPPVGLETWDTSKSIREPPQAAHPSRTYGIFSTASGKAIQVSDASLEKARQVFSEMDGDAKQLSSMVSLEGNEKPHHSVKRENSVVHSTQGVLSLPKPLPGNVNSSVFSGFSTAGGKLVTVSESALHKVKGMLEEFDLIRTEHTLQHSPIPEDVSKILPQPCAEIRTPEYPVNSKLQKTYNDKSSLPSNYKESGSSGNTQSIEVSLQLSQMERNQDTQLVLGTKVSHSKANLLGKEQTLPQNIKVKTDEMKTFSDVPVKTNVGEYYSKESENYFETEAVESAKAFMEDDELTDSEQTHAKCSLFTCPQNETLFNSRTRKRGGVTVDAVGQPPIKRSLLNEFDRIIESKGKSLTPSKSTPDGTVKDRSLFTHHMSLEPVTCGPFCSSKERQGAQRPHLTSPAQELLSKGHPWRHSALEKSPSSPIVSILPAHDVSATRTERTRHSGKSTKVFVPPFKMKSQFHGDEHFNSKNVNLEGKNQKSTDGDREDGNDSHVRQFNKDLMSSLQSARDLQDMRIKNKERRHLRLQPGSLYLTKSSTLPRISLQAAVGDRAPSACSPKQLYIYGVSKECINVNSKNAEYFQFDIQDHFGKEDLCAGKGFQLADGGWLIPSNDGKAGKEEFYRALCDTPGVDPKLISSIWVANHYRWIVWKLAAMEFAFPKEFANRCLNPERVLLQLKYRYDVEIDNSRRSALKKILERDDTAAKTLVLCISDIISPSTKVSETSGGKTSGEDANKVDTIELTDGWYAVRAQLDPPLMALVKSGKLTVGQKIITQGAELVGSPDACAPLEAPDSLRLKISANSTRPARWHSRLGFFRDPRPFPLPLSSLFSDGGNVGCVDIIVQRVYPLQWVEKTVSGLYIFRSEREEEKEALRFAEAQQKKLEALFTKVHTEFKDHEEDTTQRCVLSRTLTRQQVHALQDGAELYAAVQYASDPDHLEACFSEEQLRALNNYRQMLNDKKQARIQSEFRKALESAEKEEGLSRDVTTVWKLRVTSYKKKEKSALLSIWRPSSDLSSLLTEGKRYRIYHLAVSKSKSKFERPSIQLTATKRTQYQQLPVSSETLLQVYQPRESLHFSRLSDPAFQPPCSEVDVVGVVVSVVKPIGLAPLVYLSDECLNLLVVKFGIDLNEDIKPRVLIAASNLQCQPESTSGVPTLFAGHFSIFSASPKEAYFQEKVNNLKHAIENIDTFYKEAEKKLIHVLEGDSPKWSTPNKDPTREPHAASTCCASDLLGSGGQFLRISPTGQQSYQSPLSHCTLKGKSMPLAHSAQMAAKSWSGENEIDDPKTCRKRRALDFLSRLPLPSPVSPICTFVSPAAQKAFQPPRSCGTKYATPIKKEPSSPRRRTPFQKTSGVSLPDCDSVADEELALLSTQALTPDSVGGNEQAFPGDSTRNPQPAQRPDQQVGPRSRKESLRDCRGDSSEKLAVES

These are yes or no findings as the source states them, for the method shown. In cells and extracts the contact can be indirect. Some results given as binding are weak or reduced against the parent protein; the word gives no strength. For part of these data: Tags and fused reporters may be left off the sequences shown.

Experiment [1] concerns the target T1, mouse HSF2BP-GFP (homozygous Hsf2bp-GFP knock-in allele) (mouse (endogenous in mES cells)) (UniProt Q9D4G2).
T1 sequence: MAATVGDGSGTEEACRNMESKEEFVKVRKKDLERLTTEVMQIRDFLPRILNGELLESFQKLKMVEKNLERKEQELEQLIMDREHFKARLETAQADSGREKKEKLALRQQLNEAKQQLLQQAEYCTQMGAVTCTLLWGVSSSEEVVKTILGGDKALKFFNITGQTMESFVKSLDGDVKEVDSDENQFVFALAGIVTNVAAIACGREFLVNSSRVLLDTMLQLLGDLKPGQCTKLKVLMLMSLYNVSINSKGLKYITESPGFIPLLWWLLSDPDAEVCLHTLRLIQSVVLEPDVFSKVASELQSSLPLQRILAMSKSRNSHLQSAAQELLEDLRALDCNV
The experiment is described as follows: co-IP; anti-GFP nanobody beads on lysates of Hsf2bp^GFP/GFP mES cells with Brca2 wt, ∆12 or ∆12-14 alleles; BRCA2 blotted, fluorescent secondary antibodies; NETT buffer.

Experiment [2] has as its target T2, mouse HSF2BP, endogenous in testis (mouse (endogenous in testis)) (UniProt Q9D4G2).
T2 sequence: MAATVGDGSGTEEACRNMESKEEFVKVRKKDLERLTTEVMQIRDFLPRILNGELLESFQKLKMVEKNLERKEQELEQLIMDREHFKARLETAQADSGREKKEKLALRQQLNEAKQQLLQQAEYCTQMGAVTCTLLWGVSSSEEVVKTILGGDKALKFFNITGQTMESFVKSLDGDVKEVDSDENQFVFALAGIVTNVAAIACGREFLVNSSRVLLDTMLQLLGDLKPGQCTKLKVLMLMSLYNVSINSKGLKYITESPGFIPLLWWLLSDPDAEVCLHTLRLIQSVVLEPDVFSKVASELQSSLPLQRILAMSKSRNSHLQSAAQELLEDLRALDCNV
The experiment is described as follows: co-IP; mouse testis lysate (NETT++ or RIPA++), anti-HSF2BP or anti-RAD51 antibodies cross-linked to protein A beads, 4 h at 4 C; BRCA2, BRME1, RAD51 and HSF2BP blotted.

For experiment [3], the target named is mouse full-length BRCA2-GFP (homozygous Brca2-GFP knock-in allele) (mouse (endogenous in mES cells)) (UniProt P97929). The experiment in a line: co-IP; anti-GFP nanobody beads on lysates of mES cells with homozygous Brca2-GFP alleles (full, ∆12, ∆12-14); HSF2BP blotted, fluorescent secondary antibodies; NETT buffer.

Regarding “mouse BRCA2, endogenous in Hsf2bp^GFP/GFP Brca2^wt/wt mES cells (from UniProt P97929 1-3329)”, in experiment [1], the binding result is listed as “binds”.

Take “mouse BRCA2, endogenous in Brca2^+/+ testis (from UniProt P97929 1-3329)”: the binding entry in experiment [2] is reported as “binds”.

B1: mouse HSF2BP, endogenous in mES cells (protein, UniProt Q9D4G2 1-338)
chain: MAATVGDGSGTEEACRNMESKEEFVKVRKKDLERLTTEVMQIRDFLPRILNGELLESFQKLKMVEKNLERKEQELEQLIMDREHFKARLETAQADSGREKKEKLALRQQLNEAKQQLLQQAEYCTQMGAVTCTLLWGVSSSEEVVKTILGGDKALKFFNITGQTMESFVKSLDGDVKEVDSDENQFVFALAGIVTNVAAIACGREFLVNSSRVLLDTMLQLLGDLKPGQCTKLKVLMLMSLYNVSINSKGLKYITESPGFIPLLWWLLSDPDAEVCLHTLRLIQSVVLEPDVFSKVASELQSSLPLQRILAMSKSRNSHLQSAAQELLEDLRALDCNV
As to B1, the binding result in experiment [3] is recorded as “binds”.
